In PubChem BioAssay (EPA / NIEHS):
The shares of active, inactive and inconclusive entries below differ from those in the screen. Potencies beside an inconclusive call are fits to weak or partial responses and may not hold up. The source made the active and inactive calls. Rule for the calls: active = hit-call score of the fitted dose curve at least 0.9, where 1 is the maximum; inconclusive = response in the unintended direction; inactive = score below 0.9.

Experiment: ACEA_ER_AUC_viability: ACEA Biosciences xCELLigence Real-Time Cell Analysis on Estrogen Receptor Agonism for Viability (AID 2283782);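 note: continuous compound exposure with impedance area under curve over 80 h; hit means loss of impedance signal meaning reduced cell growth or viability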
Method in brief: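 T47D cells preconditioned in phenol red-free RPMI with charcoal-stripped FBS, then dosed with 8-point 1:4 series from 100 uM (up to 0.5% DMSO). Impedance monitored up to ~80 h; area-under-curve loss versus DMSO taken as viability.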

SMILES | outcome | AC50
NC(=O)NC(N)=O | inactive | 
CCOC(=O)CC1(C)OCC(C)O1 (centres undefined) | inactive | 
Cc1ccnc(N)c1 |  | inconclusive: 0.162 µM
CC(=N[Si](C)(C)C)O[Si](C)(C)C | inactive | 
c1ccc2[nH]cnc2c1 |  | inconclusive: 50.5 µM
c1ccc2cnccc2c1 | inactive | 
C[N+](C)(C)CCO |  | inconclusive: 0.181 µM
CC(C)c1nnc2ccc(-c3ocnc3-c3cc(F)ccc3F)cn12 |  | inconclusive: 87 µM
C=O |  | inconclusive: 52 µM
C=C(C)CCCC | inactive | 
CC(C)CC(C)(O)C#CC(C)(O)CC(C)C (centres undefined) |  | inconclusive: 87.5 µM
O=C(O)[C@H](O)[C@@H](O)C(=O)O |  | inconclusive: 50 µM
CC(C)C[C@H]1C(=O)N2CCC[C@H]2[C@]2(O)O[C@](NC(=O)[C@@H]3C=C4c5cccc6[nH]c(Br)c(c56)C[C@H]4N(C)C3)(C(C)C)C(=O)N12 |  | active: 4.31 µM
CC(C)(CO)C(O)C(=O)NCCCO (centres undefined) | inactive | 
C=C(C)C(=O)OCC1CCCO1 (centres undefined) | inactive | 
O=C(CS)OCCOC(=O)CS |  | active: 82.2 µM
CCCCCCCCCC(=O)OCC | inactive | 
FC(F)(F)C(F)(F)C(F)(F)C(F)(F)C(F)(F)C(F)(F)C(F)(F)Br | inactive | 
O=CCc1ccccc1 |  | active: 78.6 µM
NCc1ccco1 | inactive | 
O=C(O)C(F)(F)C(F)(F)C(F)(F)C(F)(F)C(F)(F)C(F)(F)C(F)F |  | inconclusive: 75 µM
Cc1ccccc1CCO |  | inconclusive: 0.129 µM
N#CC1(N)CCCCC1 | inactive | 
O=S1(=O)CCCO1 |  | inconclusive: 0.169 µM

2 records drawn at random from the list so far, as already listed:
SMILES | outcome | AC50
C[N+](C)(C)CCO |  | inconclusive: 0.181 µM
C=C(C)C(=O)OCC1CCCO1 (centres undefined) | inactive | 
